The other results are listed elsewhere or left out. Shown are side measurements of this screen, not its main read-out; they come without a call. The list favours compounds with an active or inconclusive main result. The note in brackets gives the kind of curve behind each potency; many fits are weak.
Assay: qHTS Assay for Identifying the Cell-Membrane Permeable IMPase Inhibitors
Settings: CHO-M1 cells, IP1 accumulation, HTRF TR-FRET ratio; measured here: donor channel 620 nm AC50

| Structure (SMILES) | AC50 |
| --- | --- |
| COc1ccc(S(=O)(=O)N(CCN2CCOCC2)Cc2cc(OC)ccc2OC)cc1 | 6.31 µM [rising, single point] |
| NC(=O)c1c(NC(=O)CN2C(=O)CCC2=O)sc2c1CCCCC2 | 4.47 µM [falling, partial curve, poor fit] |
| c1ccc(-c2nnc3sc(CN4CCC5(CC4)OCCO5)cn23)cc1 | 0.316 µM [falling, partial curve] |
| CCCCC(=O)Nc1nn(CC(C)C)c2nc3ccccc3cc12 | 7.94 µM [falling, full curve, poor fit] |
| COc1ccc(S(=O)(=O)N2CCC(C(=O)N3CCc4ccccc4C3)CC2)cc1C | 25.1 µM [falling, single point] |
| COCCCn1c(Cc2csc(Nc3cccc(Cl)c3)n2)nnc1SCC(=O)OC | 0.794 µM [falling, full curve, poor fit] |
| CCc1ccc(OCc2nc(-c3ccc(OC)c(OC)c3)no2)c(Br)c1 | 10 µM [falling, partial curve, poor fit] |
| Cc1ccc(NCc2nnc(SCC(=O)N(Cc3ccccc3)C(C)(C)C)o2)c(C)c1 | 0.891 µM [falling, full curve, poor fit] |
| COc1ccc(S(C)(=O)=O)cc1S(C)(=O)=O | 5.01 µM [rising, single point] |
| CCc1nc(SCC(=O)N2CCC(Cc3ccccc3)CC2)c2c(=O)n(C)c(=O)n(C)c2n1 | 31.6 µM [rising, single point] |
| O=C(Cn1c(=O)oc2ccccc21)Nc1nc(-c2ccc(Br)cc2)cs1 | 4.47 µM [rising, single point] |
| COC(=O)c1ccc(Oc2ccc3nncn3n2)cc1 | 1.58 µM [falling, full curve, poor fit] |
| O=C1CC(c2nnc(Cc3ccc(F)cc3Cl)o2)CN1c1ccccc1 (stereo unspecified) | 5.62 µM [falling, single point] |
| CCCCCCCCCCCCCCCCCCOC[C@@H](COP(=O)([O-])OCC[N+](C)(C)C)OC | 0.158 µM [falling, full curve, poor fit] |
| CCOC(=O)/C(C#N)=C\C=C1C=CN(C)C=C1 | 2.51 µM [falling, full curve, poor fit] |
| CCc1cc2c(N[C@@H](C)C(=O)O)ncnc2s1 | 31.6 µM [rising, single point] |
| COc1cc(/C=C2/C(=O)NN(c3cccc(C)c3)C2=O)ccc1OC(=O)c1ccco1 | 0.112 µM [rising, full curve, poor fit] |
| COc1cc(C)c(Cl)cc1S(=O)(=O)n1cnc(C)c1 | 31.6 µM [rising, single point] |
| Cc1ccc(-c2nnc(-c3ccccc3)o2)cc1 | 0.0631 µM [rising, full curve, poor fit] |
| O=C(Cn1cc(C(=O)c2ccco2)c2ccccc21)NC1CCCC1 | 0.158 µM [falling, full curve, poor fit] |
| c1ccc2c(c1)OCC(c1csc3ncnc(N4CCCCC4)c13)O2 (stereo unspecified) | 0.00316 µM [rising, full curve, poor fit] |

| Structure (SMILES) | AC50 |
| --- | --- |
| O=C(Nc1ccccc1Cl)c1sc2cccc(Cl)c2c1Cl | 28.2 µM [rising, single point] |
| O=C(N/N=C/C1CCCCC1)c1cc(Cl)ccc1O | 10 µM [falling, single point] |
| Cc1csc(NC(=O)c2sc3nc(-c4cccs4)ccc3c2N)n1 | 15.8 µM [rising, partial curve] |
| COc1ccc(N2CCN(CCCNC(=O)Nc3ccccc3)CC2)cc1 | 2.82 µM [falling, single point] |
| Cn1c(CN2CCN(c3ccc(Cl)cc3)CC2)nc2ccccc21 | 0.0126 µM [rising, full curve, poor fit] |
| CS(=O)(=O)c1sc2nc(-c3cccs3)cc(-c3ccccc3)c2c1N | 15.8 µM [rising, partial curve] |
| CCc1ccc2nc(N3CCN(C)CC3)c(C#N)cc2c1 | 0.0501 µM [rising, partial curve, poor fit] |
| CN1CCN(NC(=O)c2ccc(Cl)c([N+](=O)[O-])c2)CC1 | 20 µM [falling, partial curve, poor fit] |
| Cc1cc(C)c(S(=O)(=O)N2CCC(C(=O)NCc3ccco3)CC2)c(C)c1 | 15.8 µM [falling, single point] |
| CC(C)(C)NC(=O)c1ccc(COCC(F)(F)F)o1 | 3.16 µM [falling, single point] |
| Cc1c(NC(=O)OCCNC(=O)COc2ccc(Cl)cc2Cl)sc(=S)n1C | 12.6 µM [rising, single point] |
| Cc1ccccc1Cn1ccc(NC(=O)c2cc3nc(-c4ccco4)cc(C(F)(F)F)n3n2)n1 | 0.0251 µM [rising, full curve, poor fit] |
| C=CCOC(=O)C1=C(C)NC(SCC(=O)NC(=O)OCC)=C(C#N)C1c1cccnc1 (stereo unspecified) | 0.0251 µM [rising, full curve, poor fit] |
| COc1ccc(NS(=O)(=O)c2cccc(C(=O)O)c2)cc1 | 0.01 µM [rising, full curve] |
| CC(=O)Nc1c(O)nc(SCC(=O)Nc2nnc(CC(C)C)s2)[nH]c1=O | 31.6 µM [falling, single point] |
| COC(=O)c1c(NC(=O)c2ccc(S(=O)(=O)N3CCOCC3)cc2)sc2c1CCN(C)C2 | 0.251 µM [falling, single point] |
| CCC(CC)C(=O)Nc1cccc(C(=O)N2CCCC2)c1 | 12.6 µM [rising, single point] |
| O=[N+]([O-])c1cc(-c2ccc(/C=N/c3nc4ccccn4c3-c3ccco3)o2)ccc1Cl | 2.51 µM [falling, full curve, poor fit] |
| CC(=O)OC1c2c(ccc3ccc(=O)oc23)OC(C)(C)C1OC(=O)CC(C)C (stereo unspecified) | 0.2 µM [rising, full curve, poor fit] |
| CCc1ccccc1NC1=NCC(=O)N1Cc1ccc2c(c1)OCO2 | 2.51 µM [falling, partial curve] |

Retrieved by structure from above, 2 records:

| Structure (SMILES) | AC50 |
| --- | --- |
| COc1ccc(S(=O)(=O)N2CCC(C(=O)N3CCc4ccccc4C3)CC2)cc1C | 25.1 µM [falling, single point] |
| c1ccc2c(c1)OCC(c1csc3ncnc(N4CCCCC4)c13)O2 (stereo unspecified) | 0.00316 µM [rising, full curve, poor fit] |

— PubChem BioAssay AID901 (National Center for Advancing Translational Sciences (NCATS), 2007)
